In PMC11247805:
No constants are given. Whether binding was seen depends on the method and setting. Binding seen in cells or lysates may run through a third protein. A yes stands for co-enrichment or nearness to the bait. Other partners may have been found. Tags and fused reporters may be left off the sequences shown.

The chains behind the UniProt entries cited, without tags or fusion partners. Where a name states a change or a piece, a line headed by the entry shows the natural chain unless it says otherwise.
UniProt G4NJG9: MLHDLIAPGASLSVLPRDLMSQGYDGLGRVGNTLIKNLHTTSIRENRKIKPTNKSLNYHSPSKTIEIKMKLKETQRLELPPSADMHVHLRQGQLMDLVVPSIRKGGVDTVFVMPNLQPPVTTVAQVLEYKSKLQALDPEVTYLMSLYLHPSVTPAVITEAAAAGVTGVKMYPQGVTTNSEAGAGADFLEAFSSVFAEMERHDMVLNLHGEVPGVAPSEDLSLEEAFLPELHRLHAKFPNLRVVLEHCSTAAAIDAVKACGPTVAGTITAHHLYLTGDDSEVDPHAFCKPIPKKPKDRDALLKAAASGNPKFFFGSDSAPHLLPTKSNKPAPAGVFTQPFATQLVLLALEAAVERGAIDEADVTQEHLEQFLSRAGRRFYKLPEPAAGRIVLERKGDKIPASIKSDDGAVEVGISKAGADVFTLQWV

Molecular target: T1, MoAtg5-GFP (Magnaporthe oryzae) (UniProt Q525E4)
T1 sequence: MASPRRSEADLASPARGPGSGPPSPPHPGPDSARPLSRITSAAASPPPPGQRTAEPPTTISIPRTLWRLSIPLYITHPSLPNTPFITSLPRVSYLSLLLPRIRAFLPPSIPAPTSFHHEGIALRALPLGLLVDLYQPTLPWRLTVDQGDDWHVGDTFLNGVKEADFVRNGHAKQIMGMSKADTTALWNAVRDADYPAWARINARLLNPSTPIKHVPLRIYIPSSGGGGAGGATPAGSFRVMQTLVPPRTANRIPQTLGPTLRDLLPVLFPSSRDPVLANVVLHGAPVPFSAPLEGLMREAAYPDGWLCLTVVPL
Assay: affinity purification with mass spectrometry

With “MoPyr4 (found in the immunoprecipitate of MoAtg5-GFP) (from UniProt G4NJG9) (enzyme)” the binding was “binds”.
